Results are given in words; binding and its absence hold for the method and conditions named. Binding seen in cells or lysates may run through a third protein. For some assays here: Binding calls can cover weak binding; strength is not graded here.
Experiments:
[1] = target: C-terminal domain of LpoA (LpoA^C) (E. coli); experiment: pull-down; affinity chromatography: E. coli membrane fraction applied in 400 mM NaCl to sepharose columns with immobilised protein, empty sepharose as control; washed, eluted with 2 M NaCl; SDS-PAGE, Western blot and immunodetection of Lpo proteins or PBPs; only the target purified
[2] = target: PBP1B variant that lacks the UB2H domain (PBP1BΔUB2H) (E. coli) (UniProt P02919); experiment: cross-linking + co-IP; E. coli cells treated with DTSSP cross-linker in vivo; membrane fractions immunoprecipitated with LpoA or PBP1B antibodies and protein G-agarose; cross-link reverted with reducing agent; immunodetection of PBP1A or LpoB

Chains of the proteins cited; added tags and fusions are not shown. Lines headed by an entry give the natural chain unless they say otherwise; changes in a name come on top.
UniProt P02919: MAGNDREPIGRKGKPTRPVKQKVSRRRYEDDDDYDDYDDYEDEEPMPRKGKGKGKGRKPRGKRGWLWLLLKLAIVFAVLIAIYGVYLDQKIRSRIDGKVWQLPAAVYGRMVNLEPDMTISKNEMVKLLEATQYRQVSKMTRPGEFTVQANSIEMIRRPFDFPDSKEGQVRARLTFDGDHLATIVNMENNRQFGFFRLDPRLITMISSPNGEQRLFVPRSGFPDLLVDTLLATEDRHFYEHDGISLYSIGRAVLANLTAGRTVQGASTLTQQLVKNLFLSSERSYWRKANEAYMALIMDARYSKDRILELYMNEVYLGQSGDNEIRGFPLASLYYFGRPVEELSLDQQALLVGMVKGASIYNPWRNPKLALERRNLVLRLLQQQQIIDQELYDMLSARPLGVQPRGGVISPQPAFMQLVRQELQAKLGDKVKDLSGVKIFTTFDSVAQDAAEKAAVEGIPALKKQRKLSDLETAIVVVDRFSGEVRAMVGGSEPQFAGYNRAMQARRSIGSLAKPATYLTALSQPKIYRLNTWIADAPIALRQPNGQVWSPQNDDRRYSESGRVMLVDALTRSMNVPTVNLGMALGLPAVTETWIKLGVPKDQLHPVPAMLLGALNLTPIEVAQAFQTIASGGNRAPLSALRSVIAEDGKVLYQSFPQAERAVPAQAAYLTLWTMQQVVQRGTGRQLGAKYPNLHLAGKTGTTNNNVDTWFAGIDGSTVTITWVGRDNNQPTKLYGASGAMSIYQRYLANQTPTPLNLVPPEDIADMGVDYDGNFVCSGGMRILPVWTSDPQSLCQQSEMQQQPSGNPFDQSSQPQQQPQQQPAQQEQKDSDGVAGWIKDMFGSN

| Binder | binding [1] | binding [2] |
| --- | --- | --- |
| PBP1A, endogenous (enzyme, UniProt P02918 1-850) MKFVKYFLILAVCCILLGAGSIYGLYRYIEPQLPDVATLKDVRLQIPMQIYSADGELIAQYGEKRRIPVTLDQIPPEMVKAFIATEDSRFYEHHGVDPVGIFRAASVALFSGHASQGASTITQQLARNFFLSPERTLMRKIKEVFLAIRIEQLLTKDEILELYLNKIYLGYRAYGVGAAAQVYFGKTVDQLTLNEMAVIAGLPKAPSTFNPLYSMDRAVARRNVVLSRMLDEGYITQQQFDQTRTEAINANYHAPEIAFSAPYLSEMVRQEMYNRYGESAYEDGYRIYTTITRKVQQAAQQAVRNNVLDYDMRHGYRGPANVLWKVGESAWDNNKITDTLKALPTYGPLLPAAVTSANPQQATAMLADGSTVALSMEGVRWARPYRSDTQQGPTPRKVTDVLQTGQQIWVRQVGDAWWLAQVPEVNSALVSINPQNGAVMALVGGFDFNQSKFNRATQALRQVGSNIKPFLYTAAMDKGLTLASMLNDVPISRWDASAGSDWQPKNSPPQYAGPIRLRQGLGQSKNVVMVRAMRAMGVDYAAEYLQRFGFPAQNIVHTESLALGSASFTPMQVARGYAVMANGGFLVDPWFISKIENDQGGVIFEAKPKVACPECDIPVIYGDTQKSNVLENNDVEDVAISREQQNVSVPMPQLEQANQALVAKTGAQEYAPHVINTPLAFLIKSALNTNIFGEPGWQGTGWRAGRDLQRRDIGGKTGTTNSSKDAWFSGYGPGVVTSVWIGFDDHRRNLGHTTASGAIKDQISGYEGGAKSAQPAWDAYMKAVLEGVPEQPLTPPPGIVTVNIDRSTGQLANGGNSREEYFIEGTQPTQQAVHEVGTTIIDNGEAQELF | binds | – |
| LpoB (YcfM), endogenous (protein, UniProt P0AB38 20-213) CVGQREPAPVEEVKPAPEQPAEPQQPVPTVPSVPTIPQQPGPIEHEDQTAPPAPHIRHYDWNGAMQPMVSKMLGADGVTAGSVLLVDSVNNRTNGSLNAAEATETLRNALANNGKFTLVSAQQLSMAKQQLGLSPQDSLGTRSKAIGIARNVGAHYVLYSSASGNVNAPTLQMQLMLVQTGEIIWSGKGAVSQQ | – | no binding |

From article PMC3060616
